PubChem BioAssay AID1259405 | NCATS | 2018
Purpose: 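Silenced genes that increase secreted GFP made by CHO cells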 (primary screen). Cells: Chinese hamster CHO-K1 ovary cells with stable secreted eGFP expression. Reagent: single siRNA against mouse genes, 0.8 pmol siRNA per well (2 µl of 400 nM stock). Time to read-out: 3 days. Measurement: 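Per-well intracellular GFP measured by laser scanning cytometry, plus viability from ATP luminescence, each relative to plate median of non-targeting control wells, in %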. Direction: GFP, % of control: higher = more GFP per well, higher productivity; viability (ATP), % of control: higher = more viable cells (more ATP). Hit rule: 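a knock-down is called active if GFP reaches 120% or more of non-targeting control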.
Shown is one part, drawn at random, of about 50,000 deposited reagents. In the full data, about 4,000 (8%) got an active call. 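Mouse siRNA library applied to hamster cells; one well for each siRNA.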 Entries without a mark were called inactive. Reagent sequences are not shown.

no.	gene knocked down	PubChem SID	GFP, % of control	viability (ATP), % of control
1	Or8b12c	SID363554605	68.2	62.1
2	Or8b12c	SID363568052	91.9	50.8
3	Or8b12c	SID363586111	121 (active)	73.2
4	Nfil3	SID363573805	97.3	106
5	Nfil3	SID363581549	98.4	97.9
6	Nfil3	SID363584013	84	94.4
7	Or1ad6	SID363554144	64.2	82.5
8	Or1ad6	SID363567591	53.6	76.4
9	Or1ad6	SID363584948	47	53.7
10	Golga1	SID363539833	59.6	56.8
11	Golga1	SID363561134	89.7	53
12	Golga1	SID363564170	64	92.5
13	Cd300lg	SID363544379	42.4	33.5
14	Cd300lg	SID363550707	79.9	90.8
15	Cd300lg	SID363557256	77.1	84.3
16	A430005L14Rik	SID363542721	58.4	58.9
17	A430005L14Rik	SID363546238	60.6	73.5
18	A430005L14Rik	SID363547994	70.6	76
19	Tmem63c	SID363542898	54.7	48.6
20	Tmem63c	SID363546415	116	46.6
21	Tmem63c	SID363548171	75.2	102
22	Ubash3b	SID363543938	75	52.3
23	Ubash3b	SID363551674	68.5	54.4
24	Ubash3b	SID363559279	105	85.8
25	Ky	SID363540406	70.4	74.1
26	Ky	SID363542158	60	52.8
27	Ky	SID363567074	65.6	91
28	Asnsd1	SID363572604	57.8	69.9
29	Asnsd1	SID363577884	104	89.6
30	Asnsd1	SID363582108	124 (active)	130
31	Ilk	SID363547482	85.1	91.4
32	Ilk	SID363558251	82.4	79.9
33	Ilk	SID363560009	86.9	95.7
34	H2-D1	SID363553715	66.9	92.3
35	H2-D1	SID363553851	56.7	47.8
36	H2-D1	SID363561672	68.8	58.7
37	H2-D1	SID363561808	70.1	64
38	H2-D1	SID363565410	101	63.6
39	H2-D1	SID363565546	70.3	58.9
40	Gpc1	SID363553824	148 (active)	85
41	Gpc1	SID363561781	73.3	70.1
42	Gpc1	SID363565519	88.8	86.5
43	Zfp280b	SID363573581	133 (active)	123
44	Zfp280b	SID363581325	79.6	70.4
45	Zfp280b	SID363583789	69.3	60.8
46	Bsn	SID363572902	107	82.9
47	Bsn	SID363577478	72.7	66.4
48	Bsn	SID363580998	81.1	63.5
49	9130008F23Rik	SID363552169	83.9	56
50	9130008F23Rik	SID363585305	76.7	77.2
51	9130008F23Rik	SID363585656	71.2	67.5
52	Chmp1b2	SID363553808	47.8	39.5
53	Chmp1b2	SID363561765	47.3	51.6
54	Chmp1b2	SID363565503	56.3	53.8
55	Cfap410	SID363543374	70.7	87
56	Cfap410	SID363552867	56.2	59.5
57	Cfap410	SID363558715	58.3	72.9
58	Tmem82	SID363546853	145 (active)	67.3
59	Tmem82	SID363549665	92.8	73.2
60	Tmem82	SID363587719	160 (active)	143
61	Vmn1r25	SID363556574	90.9	37
62	Vmn1r25	SID363563478	78.4	56.5
63	Vmn1r25	SID363587024	80	93.2
64	St6galnac1	SID363570449	71.2	80.6
65	St6galnac1	SID363579249	67	89.1
66	St6galnac1	SID363583121	79.6	104
67	Tmem42	SID363540840	94	87.8
68	Tmem42	SID363543291	94.6	96.9
69	Tmem42	SID363552784	101	91.1
70	Ptprk	SID363575065	50.4	72.3
71	Ptprk	SID363580697	102	60.6
72	Ptprk	SID363582809	87.6	75.7
73	Lrrc8e	SID363543435	84.7	87.3
74	Lrrc8e	SID363552928	49.2	62.9
75	Lrrc8e	SID363558776	60.6	72.4
76	Ago3	SID363553944	76.5	47.7
77	Ago3	SID363561901	71.4	60
78	Ago3	SID363565639	107	86.7
79	Necap1	SID363540549	85.2	89.1
80	Necap1	SID363543000	75.2	73.2
81	Necap1	SID363552493	129 (active)	58.2
82	Ephb1	SID363571033	94.8	102
83	Gm10283	SID363540308	55.1	68.7
84	Gm10283	SID363542060	75.1	48.5
85	Gm10283	SID363566976	102	80.5
